{"source": "patent US9339463B2", "about": "“Micronized opioid compositions having a specific particle size distribution” (priority 2007, dated 2016)", "test": "Particle size distribution by laser diffraction (Malvern Mastersizer 2000), oxycodone base", "assay_type": "physicochemical", "details": "Table 1 analysis, lot 2 in duplicate", "note": "Some entries share one result that the patent states for a list of compounds.", "data": [{"compound": "COc1ccc2c3c1O[C@H]1C(=O)CC[C@@]4(O)[C@@H](C2)N(C)CC[C@]314", "note": "[Lot 1, oxycodone]", "values": [{"measurement": "Particle size (Dv90)", "setting": "listed as lot 1", "result": "3-5 μ"}]}, {"compound": "COc1ccc2c3c1O[C@H]1C(=O)CC[C@@]4(O)[C@@H](C2)N(C)CC[C@]314", "note": "[Lot 2, oxycodone]", "values": [{"measurement": "Particle size (Dv90)", "setting": "listed as lot 2", "result": "3-5 μ"}]}]}
